Measurements as given in US8124424B2, “Single molecule-format bioluminescent probe” (National Institute of Advanced Industrial Science and …, priority 2007, dated 2012).
These are yes or no findings as the source states them, for the method shown. Some entries that bind do so weakly or less than the wild type. Values belong to the binder of their own block, whether it stands above or below them.

The chains behind the UniProt entries cited, without tags or fusion partners. Residues count along the entry.
UniProt P10275, residues 672-910: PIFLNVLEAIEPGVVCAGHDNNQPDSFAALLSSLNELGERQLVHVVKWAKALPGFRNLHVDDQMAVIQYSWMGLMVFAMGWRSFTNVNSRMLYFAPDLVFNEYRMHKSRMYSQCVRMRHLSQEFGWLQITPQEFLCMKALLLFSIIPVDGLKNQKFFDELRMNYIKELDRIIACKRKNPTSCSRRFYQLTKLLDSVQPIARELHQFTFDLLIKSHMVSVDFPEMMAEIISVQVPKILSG

How the values were obtained:
[1] = molecular target: androgen receptor ligand binding domain (AR LBD; 672-910 AA) (human) (UniProt P10275); test: split firefly luciferase complementation, single-chain probe pAR-NC, HeLa cells, DHT with or without antagonists
[2] = molecular target: androgen receptor ligand binding domain (AR LBD; 672-910 AA) (human) (UniProt P10275); test: split firefly luciferase complementation, single-chain probe pAR-NC, HeLa cells, 10^-5 M DHT
[3] = molecular target: androgen receptor ligand binding domain (AR LBD; 672-910 AA) (human) (UniProt P10275); test: split click beetle luciferase complementation, single-chain probe, HeLa cells, with and without 10^-5 M DHT
[4] = molecular target: androgen receptor ligand binding domain (AR LBD; 672-910 AA) (human) (UniProt P10275); test: split firefly luciferase complementation, single-chain probe pAR-mut, HeLa cells, 10^-5 M DHT
[5] = molecular target: androgen receptor ligand binding domain (AR LBD; 672-910 AA) (human) (UniProt P10275); test: split click beetle luciferase complementation, single-chain probe pSimbe-LXA, MCF-7 cells, with and without 10^-5 M DHT
[6] = molecular target: androgen receptor ligand binding domain (AR LBD; 672-910 AA) (human) (UniProt P10275); test: split click beetle luciferase complementation, single-chain probe pSimbe-LXP, MCF-7 cells, with and without 10^-5 M DHT

binding [1]: binds
binding [2]: binds
binding [3]: binds
B1: AR N-terminal motif peptide (11 AA; 20RGAFQNLFQSV30), 'FQNLF' motif of human AR NTD (peptide)
peptide: RGAFQNLFQSV

binding [4]: binds
B2: alanine mutant of the AR N-terminal motif (11 AA; 20…30) (peptide)
peptide: RGAAQNLFQSV

binding [5]: binds
binding [3]: binds
B3: reverse sequence of 'LXXLL' motif (698…686) from Xenopus TIF2 (peptide)
peptide: SSDQLLRHLIKHK

binding [6]: binds
binding [3]: binds
B4: forward sequence of 'LXXLL' motif (686…698) from Xenopus TIF2 (peptide)
peptide: KHKILHRLLQDSS
